Results are given in words; binding and its absence hold for the method and conditions named. In cells and extracts the contact can be indirect. Some binding calls cover weakened binding; strength is not graded here. For some assays here: Sequences can lack the tags named with a protein.
Columns and labels:
GFP-SUV39H1 = molecular target: T1, GFP-SUV39H1 (UniProt O54864); test: co-IP
T1 sequence: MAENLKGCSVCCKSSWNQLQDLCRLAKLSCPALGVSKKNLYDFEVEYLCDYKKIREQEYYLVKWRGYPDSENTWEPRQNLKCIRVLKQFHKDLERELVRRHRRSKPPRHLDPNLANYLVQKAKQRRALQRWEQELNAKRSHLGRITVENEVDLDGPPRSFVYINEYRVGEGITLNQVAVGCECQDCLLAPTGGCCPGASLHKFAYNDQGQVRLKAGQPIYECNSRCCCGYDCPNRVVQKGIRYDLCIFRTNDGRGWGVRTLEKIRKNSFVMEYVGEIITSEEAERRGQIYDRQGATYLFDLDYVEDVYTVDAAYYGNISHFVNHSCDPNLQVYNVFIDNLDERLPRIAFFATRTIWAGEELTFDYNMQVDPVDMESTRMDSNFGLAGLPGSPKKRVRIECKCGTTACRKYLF

The chains behind the UniProt entries cited, without tags or fusion partners.
UniProt Q9EQQ0: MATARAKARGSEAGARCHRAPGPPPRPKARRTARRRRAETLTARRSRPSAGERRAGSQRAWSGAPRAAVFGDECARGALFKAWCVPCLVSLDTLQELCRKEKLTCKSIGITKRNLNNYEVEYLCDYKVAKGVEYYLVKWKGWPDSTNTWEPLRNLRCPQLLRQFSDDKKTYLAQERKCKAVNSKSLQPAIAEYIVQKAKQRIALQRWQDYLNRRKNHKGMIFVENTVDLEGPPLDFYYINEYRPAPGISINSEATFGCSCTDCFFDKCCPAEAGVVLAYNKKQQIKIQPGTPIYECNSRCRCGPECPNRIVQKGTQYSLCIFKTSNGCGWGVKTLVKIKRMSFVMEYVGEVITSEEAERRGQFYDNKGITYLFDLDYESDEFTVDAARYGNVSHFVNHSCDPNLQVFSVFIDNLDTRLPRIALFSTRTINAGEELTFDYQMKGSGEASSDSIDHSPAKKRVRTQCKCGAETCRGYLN

GFP-SUV39H2 = GFP-SUV39H2 (UniProt Q9EQQ0); test: co-IP

B1: FOXD3 (endogenous, in Suv39h dn mouse embryonic stem cells) (protein, UniProt Q61060 1-465)
chain: MTLSGSGSASDMSGQTVLTAEDVDIDVVGEGDDGLEEKDSDAGCDSPAGPPDLRLDEADEGPPVSAHHGQSQPQALALPTEATGPGNDTGAPEADGCKGGEDAVTGGGGPGAGSGATGGLTPNKPKNSLVKPPYSYIALITMAILQSPQKKLTLSGICEFISNRFPYYREKFPAWQNSIRHNLSLNDCFVKIPREPGNPGKGNYWTLDPQSEDMFDNGSFLRRRKRFKRHQQEHLREQTALMMQSFGAYSLAAAAGAGPYGLHPAAAAGAYSHPAAAAAAAAAAALQYPYALPPVAPVLPPAVPLLPSGELGRKAAAFGSQLGPSLQLQLNTLGAAAAAAGTAGAAGTTSLIKSEPSARPSFSIENIIGAGSAAPGGSAGGGGSGGGAGGGGGSGGGGGAQSFLRPPGTVQSAALMATHQPLSLSRTTATIAPILSVPLSGQFLQPAASAAAAAAAAVQAKWPAQ
- binding (GFP-SUV39H1): binds
- binding (GFP-SUV39H2): binds
